The values below come from paper PMC8373074.

The chains behind the UniProt entries cited, without tags or fusion partners.
UniProt P07305: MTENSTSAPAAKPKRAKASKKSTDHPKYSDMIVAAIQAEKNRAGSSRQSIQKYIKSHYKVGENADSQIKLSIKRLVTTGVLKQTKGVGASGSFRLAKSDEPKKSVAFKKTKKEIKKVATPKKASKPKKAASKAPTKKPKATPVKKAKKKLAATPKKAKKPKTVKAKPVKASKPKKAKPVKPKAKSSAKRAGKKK

These are yes or no findings as the source states them, for the method shown. Some binding calls cover weakened binding; strength is not graded here.

The assay concerns the target recombinant histone H1.0 (UniProt P07305). The assay is described as follows: cross-linking; recombinant histones mixed (100 pmol each) in 100 mM HEPES pH 7.6, SDS removed, treated with one-tenth volume of 0.5% formaldehyde at 25°C for 10 min; 2D electrophoresis (AUT-PAGE then SDS-PAGE) and western blot; both purified.

In the case of “recombinant histone H1.0 (from UniProt P07305 1-194) (other; other documents disagree on this pair)”, the binding result is “binds”.
